No constants are given. Whether binding was seen depends on the method and setting. In cells and extracts the contact can be indirect. Some binding calls cover weakened binding; strength is not graded here.

Sequences of proteins named here, by UniProt entry; tags and fusion partners are left off. A change or cut given only in a name is not applied to a line headed by its entry.
UniProt Q14203: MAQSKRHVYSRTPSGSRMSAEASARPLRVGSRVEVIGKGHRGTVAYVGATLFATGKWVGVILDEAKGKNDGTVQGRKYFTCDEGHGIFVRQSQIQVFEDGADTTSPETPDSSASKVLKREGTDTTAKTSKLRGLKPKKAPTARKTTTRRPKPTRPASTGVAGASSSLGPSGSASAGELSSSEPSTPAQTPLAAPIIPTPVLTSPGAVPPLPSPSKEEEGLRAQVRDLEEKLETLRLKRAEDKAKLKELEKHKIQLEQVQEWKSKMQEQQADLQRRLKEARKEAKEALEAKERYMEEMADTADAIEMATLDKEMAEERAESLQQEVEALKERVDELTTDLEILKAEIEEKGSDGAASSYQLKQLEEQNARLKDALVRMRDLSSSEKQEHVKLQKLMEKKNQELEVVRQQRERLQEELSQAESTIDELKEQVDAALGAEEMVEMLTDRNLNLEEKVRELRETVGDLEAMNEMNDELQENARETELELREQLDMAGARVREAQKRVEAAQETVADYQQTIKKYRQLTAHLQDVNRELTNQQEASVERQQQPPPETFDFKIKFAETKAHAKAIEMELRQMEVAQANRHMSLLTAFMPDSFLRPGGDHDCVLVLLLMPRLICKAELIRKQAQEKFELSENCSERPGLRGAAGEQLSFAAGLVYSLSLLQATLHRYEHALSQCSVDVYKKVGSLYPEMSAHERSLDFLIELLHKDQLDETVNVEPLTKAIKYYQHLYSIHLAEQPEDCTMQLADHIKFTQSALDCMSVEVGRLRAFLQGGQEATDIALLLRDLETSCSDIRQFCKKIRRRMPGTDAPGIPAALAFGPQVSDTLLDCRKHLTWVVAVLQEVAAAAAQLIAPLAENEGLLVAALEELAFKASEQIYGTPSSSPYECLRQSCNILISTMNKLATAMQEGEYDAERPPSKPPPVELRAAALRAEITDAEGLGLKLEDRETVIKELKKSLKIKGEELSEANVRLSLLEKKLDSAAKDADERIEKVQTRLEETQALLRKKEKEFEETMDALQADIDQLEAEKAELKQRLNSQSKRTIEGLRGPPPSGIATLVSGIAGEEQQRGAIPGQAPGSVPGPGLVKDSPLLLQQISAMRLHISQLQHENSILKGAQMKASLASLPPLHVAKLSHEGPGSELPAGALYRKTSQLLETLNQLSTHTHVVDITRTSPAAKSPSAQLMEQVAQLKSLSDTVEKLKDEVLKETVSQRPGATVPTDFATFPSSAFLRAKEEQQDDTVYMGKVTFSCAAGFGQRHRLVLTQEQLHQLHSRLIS
UniProt P10235: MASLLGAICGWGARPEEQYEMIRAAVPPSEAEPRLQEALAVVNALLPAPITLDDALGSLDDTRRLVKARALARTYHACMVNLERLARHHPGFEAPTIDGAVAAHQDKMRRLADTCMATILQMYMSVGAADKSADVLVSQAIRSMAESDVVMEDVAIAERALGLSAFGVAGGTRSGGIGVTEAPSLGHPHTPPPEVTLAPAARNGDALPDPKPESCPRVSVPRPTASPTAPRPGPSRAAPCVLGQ

This test addresses FLAG-EGFP-p150Glued (UniProt Q14203). The test can be described thus: co-IP.

For “pUL51-HA (wild-type HSV-1 tegument protein pUL51, HA-tagged) (from UniProt P10235 1-244)”, the binding entry was “binds”.
To “pUL51^90-125-mCherry (from UniProt P10235 90-125) (domain or fragment)” belongs “binds”.

For the origin of these results see article doi:10.1101/2022.03.21.485087.
